Values from PubChem BioAssay AID1159578 (Peter MacCallum Cancer Centre, 2015)

Assay: 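Genome-wide hunt for genes controlling movement of lymphatic endothelial cells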 (primary screen)
Cells: human lymphatic endothelial cells
Reagents: siRNA pool against human genes, 40 nM
Timing: 48 h after transfection
Measurement: 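High-content imaging of dye-stained cells in a scratch assay measures filled wound area and nuclei per well; duplicate means given as ratio to mock and robust z-score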
Scale: migration robust z-score: higher = faster migration into the scratch; nuclei per well: higher = more cells in the well
Active means: 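Migration changed when robust z exceeds 2 or falls below -2 and mean nuclei number is at least 3300; otherwise not called changed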
Meaning of the calls: active = migration changed; inactive = no migration change, or too few cells
Shown is a random part of about 18,000 reagents. In the full data, about 1,030 (5.7%) are marked active. 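Inactive calls also include pools with fewer than 3300 nuclei, whose migration was not assessed.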 The raw values are shown without normalisation. Entries without a mark were called inactive. Not all columns of the deposit are shown. No sequences are given here.

After knock-down of STARD4 [SID255362971], the record shows migration robust z-score 0.82; nuclei per well, duplicate mean 5184.
Knock-down of CCNY [SID255364196] gave: migration robust z-score -0.2; nuclei per well, duplicate mean 6725.
With knock-down of CNNM1 [SID255356794] the results were migration robust z-score -0.62; nuclei per well, duplicate mean 6154.
With knock-down of HAVCR1 [SID255356852], the screen gave migration robust z-score 1.58; nuclei per well, duplicate mean 5858.
Against EXPH5 [SID255355978], the entry reads migration robust z-score -0.6; nuclei per well, duplicate mean 6832.
After knock-down of HMOX2 [SID255350231], the record shows migration robust z-score 0; nuclei per well, duplicate mean 5898.
ING3 [SID255358086] scored migration robust z-score -0.73; nuclei per well, duplicate mean 3429.
Knock-down of UPK3A [SID255353073] came out at: migration robust z-score -2.82 (active); nuclei per well, duplicate mean 5228.
REXO1L1P [SID255364475] showed migration robust z-score -0.1; nuclei per well, duplicate mean 5132.
For OR6X1 [SID255365637], the values are migration robust z-score -1.21; nuclei per well, duplicate mean 5520.
Depletion of NPFFR2 [SID255355416] came out at: migration robust z-score 1.38; nuclei per well, duplicate mean 6160.
LIMS3 [SID255362135] showed migration robust z-score -0.89; nuclei per well, duplicate mean 5385.
With knock-down of SUGT1 [SID255355437], the record shows migration robust z-score -0.53; nuclei per well, duplicate mean 4257.
Knock-down of DIO1 [SID255349304] came out at: migration robust z-score -3.11 (active); nuclei per well, duplicate mean 4129.
Against TREML4 [SID255364884], the values are migration robust z-score 1.38; nuclei per well, duplicate mean 5865.
NRIP2 [SID255361071] scored migration robust z-score -0.8; nuclei per well, duplicate mean 4192.
Depletion of OR5K3 [SID255365830] resulted in: migration robust z-score 0.57; nuclei per well, duplicate mean 5756.
GRIN2C [SID255350044] scored migration robust z-score 1.68; nuclei per well, duplicate mean 5980.
Knock-down of EXOSC7 [SID255355928] resulted in: migration robust z-score 0.64; nuclei per well, duplicate mean 5536.
Knock-down of STEAP1 [SID255356853] came out at: migration robust z-score 0.76; nuclei per well, duplicate mean 5306.
After knock-down of TMEM175 [SID255361301], the record shows migration robust z-score 0.49; nuclei per well, duplicate mean 5508.

An excerpt from above, showing only “nuclei per well, duplicate mean”.
GRIN2C [SID255350044] = 5980
EXOSC7 [SID255355928] = 5536
STEAP1 [SID255356853] = 5306
